EP4624471A1, “PKMYT1 INHIBITOR, PREPARATION METHOD THEREFOR, AND PHARMACEUTICAL COMPOSITION AND USE THEREOF” (Shanghai Qilu Pharmaceutical Research and Development …, priority 2022, dated 2024)
The match of structure and compound is tentative.

Chains of the proteins cited; added tags and fusions are not shown.
UniProt Q99640, whole entry: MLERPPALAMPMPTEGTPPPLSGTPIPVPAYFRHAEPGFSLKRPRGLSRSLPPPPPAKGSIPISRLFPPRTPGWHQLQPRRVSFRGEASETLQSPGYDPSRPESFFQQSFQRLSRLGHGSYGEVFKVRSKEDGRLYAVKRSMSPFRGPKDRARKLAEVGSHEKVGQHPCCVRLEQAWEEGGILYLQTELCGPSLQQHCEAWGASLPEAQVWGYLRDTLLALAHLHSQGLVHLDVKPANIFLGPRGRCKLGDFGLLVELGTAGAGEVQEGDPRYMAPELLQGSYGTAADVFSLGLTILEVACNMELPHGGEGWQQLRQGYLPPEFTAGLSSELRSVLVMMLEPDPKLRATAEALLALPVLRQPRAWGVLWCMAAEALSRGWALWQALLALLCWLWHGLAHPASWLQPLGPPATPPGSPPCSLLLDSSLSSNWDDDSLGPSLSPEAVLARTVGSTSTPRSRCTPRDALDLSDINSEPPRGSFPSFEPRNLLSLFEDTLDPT

Experiments:
PKMYT1 enzyme = PKMYT1 enzyme (Homo sapiens, UniProt Q99640); assay: PKMYT1 enzyme inhibition activity, ADP-GLO method; format: biochemical; details: read-out: ADP-GLO IC50; PKMYT1 enzyme 10 nM, ATP 5 µM, 37°C 90 minutes
HCC1569 cells = assay: Cytostatic activity, CTG assay (HCC1569); details: 5 days

Cc1ccc(O)c(C)c1-n1c(N)c(C(N)=O)c2c3cccnc3c(C)cc21 [210]
IC50 (PKMYT1 enzyme): 9.71 nM

Cc1ccc(O)c(C)c1-n1c(N)c(C(N)=O)c2c3cccnc3c(C)cc21 [209]
IC50 (PKMYT1 enzyme): 28.7 nM

Cc1cc2c(C(N)=O)c(N)n(-c3c(C)c(F)cc(O)c3Cl)c2nc1C [Example 114.1]
IC50 (HCC1569 cells): 69 nM
IC50 (PKMYT1 enzyme): 4.21 nM

Cc1cc2c(C(N)=O)c(N)n(-c3c(C)c(F)cc(O)c3Cl)c2nc1C [Example 114]
IC50 (HCC1569 cells): 54 nM
IC50 (PKMYT1 enzyme): 6.63 nM
